Test results taken from publication PMC11600210.
Results are given in words; binding and its absence hold for the method and conditions named. In cells and extracts the contact can be indirect. Some entries that bind do so weakly or less than the wild type. For some of these results: Tags and fused reporters may be left off the sequences shown. One block for each binder: values may come before it.

Assays:
[1] = biological target: T1, ATG9a (human (endogenous in BMSCs)) (UniProt Q7Z3C6); test: co-IP; endogenous proteins of BMSC lysate (NP-40 lysis buffer, 0.5 mg extract) immunoprecipitated with anti-ATG9a on magnetic beads, 4 °C overnight, five washes, western blot; cells with or without osteogenic induction (ODM), or transfected with Sar1a H79G or T39N vectors
T1 sequence: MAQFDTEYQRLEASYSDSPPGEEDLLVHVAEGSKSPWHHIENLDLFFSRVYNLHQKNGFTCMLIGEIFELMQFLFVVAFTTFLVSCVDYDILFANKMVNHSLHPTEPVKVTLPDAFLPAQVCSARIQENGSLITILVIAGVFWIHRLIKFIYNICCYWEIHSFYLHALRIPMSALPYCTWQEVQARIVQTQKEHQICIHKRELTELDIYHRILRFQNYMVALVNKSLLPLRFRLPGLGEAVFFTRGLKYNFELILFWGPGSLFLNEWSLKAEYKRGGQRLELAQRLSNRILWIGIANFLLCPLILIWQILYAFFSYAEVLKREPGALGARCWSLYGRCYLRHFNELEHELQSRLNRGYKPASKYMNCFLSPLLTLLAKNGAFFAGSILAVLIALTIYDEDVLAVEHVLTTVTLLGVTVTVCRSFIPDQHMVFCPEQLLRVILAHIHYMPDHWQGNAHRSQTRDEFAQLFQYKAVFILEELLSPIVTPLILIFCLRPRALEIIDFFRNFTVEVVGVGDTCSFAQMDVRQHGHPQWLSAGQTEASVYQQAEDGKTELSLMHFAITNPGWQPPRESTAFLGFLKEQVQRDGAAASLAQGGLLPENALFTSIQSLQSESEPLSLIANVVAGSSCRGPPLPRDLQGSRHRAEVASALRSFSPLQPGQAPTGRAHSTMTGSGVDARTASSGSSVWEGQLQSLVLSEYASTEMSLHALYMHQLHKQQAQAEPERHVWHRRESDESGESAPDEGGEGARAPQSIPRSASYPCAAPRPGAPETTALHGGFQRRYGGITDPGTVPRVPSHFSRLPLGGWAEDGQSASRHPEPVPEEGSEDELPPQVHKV

mClover‐ATG9a = biological target: T2, mClover‐ATG9a (UniProt Q7Z3C6); test: FRET or BRET; BMSCs with or without osteogenic induction (ODM) transfected with mClover-ATG9a and mRuby-SEC31a; donor and acceptor images before and after photobleaching
T2 sequence: T1 sequence

SEC31a‐FLAG = biological target: T3, SEC31a‐FLAG (UniProt O94979); test: co-IP; FLAG-tagged SEC31a and HA-tagged ATG9a in transfected cells, NP-40 lysate, immunoprecipitated with anti-FLAG or anti-HA on magnetic beads, western blot
T3 sequence: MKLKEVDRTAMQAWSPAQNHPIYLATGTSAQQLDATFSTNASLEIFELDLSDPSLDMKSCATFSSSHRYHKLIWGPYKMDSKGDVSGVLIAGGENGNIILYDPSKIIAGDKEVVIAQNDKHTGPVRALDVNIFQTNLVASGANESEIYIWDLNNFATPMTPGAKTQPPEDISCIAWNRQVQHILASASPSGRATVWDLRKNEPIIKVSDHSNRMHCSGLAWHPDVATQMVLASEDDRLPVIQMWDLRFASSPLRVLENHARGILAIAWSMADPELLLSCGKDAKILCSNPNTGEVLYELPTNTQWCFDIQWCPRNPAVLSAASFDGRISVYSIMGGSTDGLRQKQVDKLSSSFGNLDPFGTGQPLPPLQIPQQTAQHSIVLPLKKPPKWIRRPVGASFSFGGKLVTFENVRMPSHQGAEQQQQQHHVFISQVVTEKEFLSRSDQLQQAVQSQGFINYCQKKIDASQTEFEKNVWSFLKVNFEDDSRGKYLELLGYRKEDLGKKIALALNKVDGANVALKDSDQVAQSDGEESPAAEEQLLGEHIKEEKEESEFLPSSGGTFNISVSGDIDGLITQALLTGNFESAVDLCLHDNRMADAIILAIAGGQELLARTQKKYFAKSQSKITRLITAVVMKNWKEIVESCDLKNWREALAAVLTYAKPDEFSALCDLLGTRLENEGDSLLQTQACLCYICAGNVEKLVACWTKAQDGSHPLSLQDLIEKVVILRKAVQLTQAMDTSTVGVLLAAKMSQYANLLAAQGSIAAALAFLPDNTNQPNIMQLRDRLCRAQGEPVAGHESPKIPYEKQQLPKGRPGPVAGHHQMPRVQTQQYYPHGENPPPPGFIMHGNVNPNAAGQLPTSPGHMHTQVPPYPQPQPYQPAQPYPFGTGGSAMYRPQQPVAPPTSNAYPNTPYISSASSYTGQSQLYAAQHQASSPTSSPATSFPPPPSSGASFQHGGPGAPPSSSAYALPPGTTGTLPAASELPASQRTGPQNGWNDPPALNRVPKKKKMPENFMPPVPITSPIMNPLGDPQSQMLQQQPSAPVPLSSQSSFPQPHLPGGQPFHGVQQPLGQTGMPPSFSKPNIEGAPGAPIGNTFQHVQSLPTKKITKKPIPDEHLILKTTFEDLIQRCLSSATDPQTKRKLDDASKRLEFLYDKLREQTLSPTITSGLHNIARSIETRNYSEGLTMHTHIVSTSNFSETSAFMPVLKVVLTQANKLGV

ATG9‐HA = biological target: T4, ATG9‐HA (UniProt Q7Z3C6); test: as above
T4 sequence: T1 sequence

B2: mRuby‐SEC31a (protein, UniProt O94979 1-1220)
chain: T3 sequence
- binding (mClover‐ATG9a): binds

B3: ATG9‐HA (protein, UniProt Q7Z3C6 1-839)
chain: T1 sequence
- binding (SEC31a‐FLAG): binds

More lines, now with the values ahead:

- binding [1]: binds
B1: SEC31a (protein, UniProt O94979 1-1220)
chain: T3 sequence

- binding (ATG9‐HA): binds
B4: SEC31a‐FLAG (protein, UniProt O94979 1-1220)
chain: T3 sequence
